# The list shows a part of the results.
# Tested on: SARS-CoV-2 3_s2m RNA
# Assay: NMR binding call after quantification (hit when 2 of 3 NMR criteria are met) (binary (1 = binding, 0 = not binding)); higher = binding
# Details: RNA concentration 10 µM; fragment concentration 200 µM; 293 K
row,Compound,NMR binding call
1,COc1ccc(C)cc1NC(=O)CN.Cl,0
2,COCc1nnc(N)s1,0
3,C(#Cc1ccccc1)CN1CCCCC1,0
4,Nc1ccc(S(=O)(=O)Nc2ccccn2)cc1,0
5,COc1ccc(CNC(=O)CC#N)cc1,0
6,OC1CN(C(c2ccccc2)c2ccccc2)C1,0
7,CC1CC1C(=O)NCCc1ccc(Cl)cc1 (stereo unspecified),0
8,O=C(COc1ccc(F)cc1)N1CCCC1,0
9,CCNC(=O)c1c[nH]nn1,0
10,OCC1CN(Cc2ccccc2)CCO1 (stereo unspecified),0
11,CC(=O)NC(C)c1nnc2ccccn12 (stereo unspecified),0
12,CN1CCN(C(=O)CO)CC1,0
13,CCOC(=O)CN1CCS(=O)(=O)CC1,0
14,NC(=O)c1ccc(NC(=O)c2cnccn2)cc1,0
15,Cl.NC1CCCN(C(=O)CCC(F)(F)F)C1 (stereo unspecified),0
16,O=c1[nH]cc(N2CCCCC2)c(=O)[nH]1,0
17,Cn1nc(C(N)=O)c2ccccc21,0
18,Cc1ccsc1CNC(C)(C)CO,0
19,CN(CC(=O)O)C(=O)c1ccc(F)cc1,0
20,CNC(=O)c1nc2ccccc2c(=O)[nH]1,0
21,CC(=O)NCCc1ccc(S(N)(=O)=O)cc1,0
22,Cc1cccc(Nc2ncnc3c2cnn3C)c1,0
23,COCC(=O)Nc1nc(-c2ccccc2)cs1,0
24,Cc1ccc(OCC(=O)Nc2cc(C)on2)cc1,0
25,CC(=O)N1CCC(NCCc2ccccc2)CC1,0
26,Cc1ccccc1CNc1nnnn1C,0

# Single entries from the entries so far:
# NMR binding call, OCC1CN(Cc2ccccc2)CCO1 (stereo unspecified) is entered as 0
# NMR binding call, Cc1ccc(OCC(=O)Nc2cc(C)on2)cc1 is entered as 0

# Reference: the supplement of paper PMC8426693
